Assay results: paper PMC2976706
These are yes or no findings as the source states them, for the method shown. In cells and extracts the contact can be indirect. Some binding calls cover weakened binding; strength is not graded here. For some of these results: Sequences can lack the tags named with a protein.

The chains behind the UniProt entries cited, without tags or fusion partners.
UniProt Q01094: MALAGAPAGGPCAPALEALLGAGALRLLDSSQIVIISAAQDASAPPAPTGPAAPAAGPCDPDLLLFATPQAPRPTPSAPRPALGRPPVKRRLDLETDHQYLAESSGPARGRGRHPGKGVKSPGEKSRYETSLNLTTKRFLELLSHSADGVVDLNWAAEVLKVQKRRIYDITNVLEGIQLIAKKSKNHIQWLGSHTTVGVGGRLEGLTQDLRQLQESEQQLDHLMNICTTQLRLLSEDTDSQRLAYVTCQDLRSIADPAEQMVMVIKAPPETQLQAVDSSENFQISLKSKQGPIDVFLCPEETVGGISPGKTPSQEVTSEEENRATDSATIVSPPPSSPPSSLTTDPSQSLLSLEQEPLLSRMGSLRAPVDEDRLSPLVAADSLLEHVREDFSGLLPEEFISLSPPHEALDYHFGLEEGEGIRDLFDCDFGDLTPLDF

How the values were obtained:
[1] = molecular target: T1, endogenous Rb (HeLa) (human (endogenous in HeLa)) (UniProt P06400); test: co-IP; endogenous proteins, lysates of asynchronous HeLa cells in HNNG buffer (15 mM Hepes pH 7.5, 250 mM NaCl, 1% NP-40, 5% glycerol), antibody overnight at 4 C, protein A/G beads, DNase I treated; western blot
T1 sequence: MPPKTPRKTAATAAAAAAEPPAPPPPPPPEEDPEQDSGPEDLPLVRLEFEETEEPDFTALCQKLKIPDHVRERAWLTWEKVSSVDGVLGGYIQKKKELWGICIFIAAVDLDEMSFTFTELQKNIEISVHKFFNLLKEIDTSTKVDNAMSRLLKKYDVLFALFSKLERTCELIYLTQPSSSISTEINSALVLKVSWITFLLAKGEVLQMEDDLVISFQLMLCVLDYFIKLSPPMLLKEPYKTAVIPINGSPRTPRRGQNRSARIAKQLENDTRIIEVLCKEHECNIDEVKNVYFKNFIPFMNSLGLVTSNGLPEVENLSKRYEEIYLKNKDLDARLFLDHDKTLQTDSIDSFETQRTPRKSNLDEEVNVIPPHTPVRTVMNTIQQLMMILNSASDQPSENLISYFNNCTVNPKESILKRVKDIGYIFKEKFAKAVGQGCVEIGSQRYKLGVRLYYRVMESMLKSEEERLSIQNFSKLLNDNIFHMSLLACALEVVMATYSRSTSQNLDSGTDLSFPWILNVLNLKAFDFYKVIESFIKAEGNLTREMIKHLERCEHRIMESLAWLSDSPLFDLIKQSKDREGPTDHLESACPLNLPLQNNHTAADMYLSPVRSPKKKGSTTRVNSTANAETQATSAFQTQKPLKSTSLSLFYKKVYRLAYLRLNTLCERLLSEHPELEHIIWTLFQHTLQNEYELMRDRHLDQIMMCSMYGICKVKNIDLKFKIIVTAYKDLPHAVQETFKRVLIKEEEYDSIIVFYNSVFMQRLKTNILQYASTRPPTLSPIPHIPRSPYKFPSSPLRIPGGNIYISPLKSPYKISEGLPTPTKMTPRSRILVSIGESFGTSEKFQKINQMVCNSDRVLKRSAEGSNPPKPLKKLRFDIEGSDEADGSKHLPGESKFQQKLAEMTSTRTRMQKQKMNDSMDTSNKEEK

[2] = molecular target: endogenous E2F1 (HeLa) (human (endogenous in HeLa)) (UniProt Q01094); test: as above
[3] = molecular target: E2F1 fused to EGFP or BFP (FRET) (human) (UniProt Q01094); test: FRET or BRET; HeLa cells transiently transfected with EGFP and BFP fusion pairs; ratio of EGFP emission at 520 nm after excitation at 350 nm to that after 480 nm, at least 10 cells a pair
[4] = molecular target: T2, Rb fused to BFP or EGFP (FRET) (human) (UniProt P06400); test: as above
T2 sequence: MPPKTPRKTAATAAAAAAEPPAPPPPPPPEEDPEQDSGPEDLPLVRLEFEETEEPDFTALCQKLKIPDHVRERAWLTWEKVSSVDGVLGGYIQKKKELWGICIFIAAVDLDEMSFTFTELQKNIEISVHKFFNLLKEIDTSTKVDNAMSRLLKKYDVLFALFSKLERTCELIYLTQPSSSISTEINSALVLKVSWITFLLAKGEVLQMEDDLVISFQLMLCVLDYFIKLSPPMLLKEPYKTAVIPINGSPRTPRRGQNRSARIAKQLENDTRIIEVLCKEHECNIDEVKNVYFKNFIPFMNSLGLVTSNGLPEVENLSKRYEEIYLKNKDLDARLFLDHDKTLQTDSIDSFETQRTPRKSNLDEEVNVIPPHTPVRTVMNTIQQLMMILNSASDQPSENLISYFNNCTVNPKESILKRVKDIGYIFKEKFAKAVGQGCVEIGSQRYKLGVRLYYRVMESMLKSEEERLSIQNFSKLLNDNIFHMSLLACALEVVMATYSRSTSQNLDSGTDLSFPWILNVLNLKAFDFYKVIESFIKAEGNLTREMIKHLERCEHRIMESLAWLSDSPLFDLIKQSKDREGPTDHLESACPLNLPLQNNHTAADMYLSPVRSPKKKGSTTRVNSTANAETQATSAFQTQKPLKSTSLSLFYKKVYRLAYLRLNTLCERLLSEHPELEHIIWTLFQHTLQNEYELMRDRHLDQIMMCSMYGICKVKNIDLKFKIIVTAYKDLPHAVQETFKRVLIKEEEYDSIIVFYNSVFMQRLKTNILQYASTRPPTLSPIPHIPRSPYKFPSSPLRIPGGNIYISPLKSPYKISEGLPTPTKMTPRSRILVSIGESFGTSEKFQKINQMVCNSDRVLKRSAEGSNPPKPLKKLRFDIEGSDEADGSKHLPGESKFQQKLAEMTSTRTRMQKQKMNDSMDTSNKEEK

| Binder | binding [1] | binding [2] | binding [3] | binding [4] |
| --- | --- | --- | --- | --- |
| endogenous Orc1 (HeLa) (protein, UniProt Q13415 1-861) MAHYPTRLKTRKTYSWVGRPLLDRKLHYQTYREMCVKTEGCSTEIHIQIGQFVLIEGDDDENPYVAKLLELFEDDSDPPPKKRARVQWFVRFCEVPACKRHLLGRKPGAQEIFWYDYPACDSNINAETIIGLVRVIPLAPKDVVPTNLKNEKTLFVKLSWNEKKFRPLSSELFAELNKPQESAAKCQKPVRAKSKSAESPSWTPAEHVAKRIESRHSASKSRQTPTHPLTPRARKRLELGNLGNPQMSQQTSCASLDSPGRIKRKVAFSEITSPSKRSQPDKLQTLSPALKAPEKTRETGLSYTEDDKKASPEHRIILRTRIAASKTIDIREERTLTPISGGQRSSVVPSVILKPENIKKRDAKEAKAQNEATSTPHRIRRKSSVLTMNRIRQQLRFLGNSKSDQEEKEILPAAEISDSSSDEEEASTPPLPRRAPRTVSRNLRSSLKSSLHTLTKVPKKSLKPRTPRCAAPQIRSRSLAAQEPASVLEEARLRLHVSAVPESLPCREQEFQDIYNFVESKLLDHTGGCMYISGVPGTGKTATVHEVIRCLQQAAQANDVPPFQYIEVNGMKLTEPHQVYVQILQKLTGQKATANHAAELLAKQFCTRGSPQETTVLLVDELDLLWTHKQDIMYNLFDWPTHKEARLVVLAIANTMDLPERIMMNRVSSRLGLTRMCFQPYTYSQLQQILRSRLKHLKAFEDDAIQLVARKVAALSGDARRCLDICRRATEICEFSQQKPDSPGLVTIAHSMEAVDEMFSSSYITAIKNSSVLEQSFLRAILAEFRRSGLEEATFQQIYSQHVALCRMEGLPYPTMSETMAVCSHLGSCRLLLVEPSRNDLLLRVRLNVSQDDVLYALKDE | binds | no binding | – | – |
| Orc1 fused to EGFP or BFP (FRET) (protein, UniProt Q13415 1-861) MAHYPTRLKTRKTYSWVGRPLLDRKLHYQTYREMCVKTEGCSTEIHIQIGQFVLIEGDDDENPYVAKLLELFEDDSDPPPKKRARVQWFVRFCEVPACKRHLLGRKPGAQEIFWYDYPACDSNINAETIIGLVRVIPLAPKDVVPTNLKNEKTLFVKLSWNEKKFRPLSSELFAELNKPQESAAKCQKPVRAKSKSAESPSWTPAEHVAKRIESRHSASKSRQTPTHPLTPRARKRLELGNLGNPQMSQQTSCASLDSPGRIKRKVAFSEITSPSKRSQPDKLQTLSPALKAPEKTRETGLSYTEDDKKASPEHRIILRTRIAASKTIDIREERTLTPISGGQRSSVVPSVILKPENIKKRDAKEAKAQNEATSTPHRIRRKSSVLTMNRIRQQLRFLGNSKSDQEEKEILPAAEISDSSSDEEEASTPPLPRRAPRTVSRNLRSSLKSSLHTLTKVPKKSLKPRTPRCAAPQIRSRSLAAQEPASVLEEARLRLHVSAVPESLPCREQEFQDIYNFVESKLLDHTGGCMYISGVPGTGKTATVHEVIRCLQQAAQANDVPPFQYIEVNGMKLTEPHQVYVQILQKLTGQKATANHAAELLAKQFCTRGSPQETTVLLVDELDLLWTHKQDIMYNLFDWPTHKEARLVVLAIANTMDLPERIMMNRVSSRLGLTRMCFQPYTYSQLQQILRSRLKHLKAFEDDAIQLVARKVAALSGDARRCLDICRRATEICEFSQQKPDSPGLVTIAHSMEAVDEMFSSSYITAIKNSSVLEQSFLRAILAEFRRSGLEEATFQQIYSQHVALCRMEGLPYPTMSETMAVCSHLGSCRLLLVEPSRNDLLLRVRLNVSQDDVLYALKDE | – | – | no binding | binds |
